# Test results: PubChem BioAssay AID1259354 (Paczesny and Yang Labs, IUPUI and University of Michigan, 2018)
# Chains of the proteins cited; added tags and fusions are not shown. Lines headed by an entry give the natural chain unless they say otherwise; changes in a name come on top.
# UniProt Q01638: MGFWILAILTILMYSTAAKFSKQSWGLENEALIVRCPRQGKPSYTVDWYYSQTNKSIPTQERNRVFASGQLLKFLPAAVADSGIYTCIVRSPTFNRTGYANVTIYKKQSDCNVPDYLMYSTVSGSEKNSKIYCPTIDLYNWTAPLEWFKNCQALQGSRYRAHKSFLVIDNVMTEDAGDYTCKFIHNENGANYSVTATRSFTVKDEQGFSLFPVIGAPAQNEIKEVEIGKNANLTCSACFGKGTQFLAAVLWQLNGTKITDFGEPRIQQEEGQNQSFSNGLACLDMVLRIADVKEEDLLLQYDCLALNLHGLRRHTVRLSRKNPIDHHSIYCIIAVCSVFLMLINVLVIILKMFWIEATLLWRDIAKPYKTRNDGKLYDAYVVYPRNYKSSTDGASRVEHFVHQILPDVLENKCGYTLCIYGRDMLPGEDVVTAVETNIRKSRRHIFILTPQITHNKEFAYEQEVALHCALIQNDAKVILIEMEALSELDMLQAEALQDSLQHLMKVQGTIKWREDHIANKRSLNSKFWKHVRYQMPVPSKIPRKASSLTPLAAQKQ
# The campaign covered roughly 78,000 compounds. About 1,800 (2.3%) were called active. The shares of active, inactive and inconclusive entries below differ from those in the screen. Rule as the data show it: active = inhibition above about 30%; inconclusive = mostly about 10% to 28%; inactive = weaker than that.
# Molecular target: Interleukin-1 receptor-like 1 (Homo sapiens) (UniProt Q01638)
# Test: blocks human ST2 binding to IL-33, primary screen, biochemical, AlphaLISA (AID 1259354)
# Conditions: AlphaLISA ST2-Fc/biotin-IL-33 interaction, 1 h; at 17 µM, stronger effect = higher value
row,SMILES,inhibition
1,CCn1c(C2CCCNC2)nn(CCCn2cnnn2)c1=O (stereo unspecified),inactive
2,COc1ccccc1CC(=O)NCC1OCCc2ccccc21 (stereo unspecified),inactive
3,CC1CCCCC1NC(=O)c1cc(=O)[nH]c2ccc(S(=O)(=O)N3CCCC3)cc12 (stereo unspecified),inactive
4,CCOc1ccc(NC(=O)c2ccc(NC(C)=O)cc2)cc1,inconclusive: 16%
5,O=C(CCCn1c(=O)[nH]c2ccsc2c1=O)NCc1ccccc1,inconclusive: 11%
6,CC(NS(=O)(=O)c1ccc(F)cc1)C(c1cccs1)N1CCN(C)CC1 (stereo unspecified),inconclusive: 16%
7,O=C(Nc1nc2ccccc2[nH]1)c1ccccc1O,inconclusive: 13%
8,CC(=O)Nc1ccc(NC(=O)c2ccc(-c3ccccc3)cc2)cc1,inactive
9,O=C(NCc1ccccn1)c1cc2c(=O)oc3ccccc3c2s1,inactive
10,COc1ccc(NS(=O)(=O)c2cccc3cccnc23)c(OC)c1,inconclusive: 17%
11,COc1cccc(CC(C2CCN(C(=O)C3=CCCC3)CC2)N(C)C(=O)c2ccco2)c1 (stereo unspecified),inconclusive: 11%
12,c1cnc(-c2nc(Cn3cnnc3)cs2)nc1,inconclusive: 11%
13,O=C(c1ccc(N2CCC(NCc3cccc(OC(F)(F)F)c3)CC2)cc1)N1CCOCC1,inconclusive: 15%
14,CC1=C(C(=O)OCC(C)C)C(c2ccccc2Cl)N2C(=O)CCSC2=N1 (stereo unspecified),inconclusive: 24%
15,COc1ccccc1-c1nccn1Cc1ccc(N2CCCC2=O)cc1,inconclusive: 17%
16,O=C(Cc1ccccc1F)Nc1ccc2c(c1)CN(C(=O)CC1=CCCCC1)CC2,inconclusive: 14%
17,COc1ccc(NC(=O)N2CCC3(CCCNC3)C2)c(C)c1 (stereo unspecified),inconclusive: 11%
18,NC1(C(=O)NCCC2CN(Cc3ccco3)CCO2)CCCC1 (stereo unspecified),inactive
19,Cc1ccc(NC(=O)Nc2cccc(Cl)c2)nc1,inactive
20,CCCc1nc(C(=O)N2CCCC3(CN(C)C(=O)O3)C2)cs1 (stereo unspecified),inconclusive: 15%
21,COc1ccc(-n2ncc3c(NCc4ccccn4)ncnc32)cc1,inconclusive: 14%

row,SMILES,inhibition
1,O=C(NCCSc1c[nH]c2ccccc12)c1cccc(Br)c1,inconclusive: 14%
2,CCn1cc(C(=O)NCCN2CCOCC2)c2c3ccccc3n(C)c2c1=O,inactive
3,O=C1NN(c2ccc(F)cc2)C(=O)/C1=C\c1cccn1-c1ccc([N+](=O)[O-])cc1,active: 31%
4,O=C(CNCCO)Nc1sc2c(c1C(=O)Nc1ccc(Br)cc1)CCC2,inconclusive: 22%
5,CC1=NN(c2cccc(Cl)c2)C(=O)/C1=C\c1ccc(Cl)c([N+](=O)[O-])c1,inconclusive: 18%
6,O=S(=O)(Nc1ccc(F)c(Cl)c1)c1cccnc1,inactive
7,CC(C)CN(CC(C)C)S(=O)(=O)c1ccc2c(c1)NC(=O)CC(=O)N2,inactive
8,O=C(NCc1ccc(Cl)cc1)c1cc(-c2ccc(Cl)cc2)on1,inactive
9,CCOC(=O)c1oc2ccccc2c1NC(=O)COC,inconclusive: 11%
10,N#Cc1c(C(F)(F)F)cc(-c2cccs2)nc1SCC(=O)Nc1ccccn1,inconclusive: 12%
11,COc1cccc(-c2cc(N3CCN(S(=O)(=O)c4ccc(NC(C)=O)cc4)CC3)ncn2)c1,inconclusive: 12%
12,CN(Cc1nc2c(s1)CCCC2)C(=O)Cn1nnnc1CN1CCCC1,inconclusive: 12%
13,OC[C@@H]1O[C@H](CNCc2cccc(Cl)c2)[C@H](N2CCN(c3cccc(C(F)(F)F)c3)CC2)[C@@H]1O,inconclusive: 16%
14,O=C(Nc1nnc(Cc2ccccc2F)s1)c1ccc(F)cc1,inconclusive: 10%
15,O=C1CCC(=O)NCCCCCN(O)C(=O)CCC(=O)NCCCCCN(O)C(=O)CCC(=O)NCCCCCN1,active: 39%
16,Cc1cc2c(cc1C)-c1nnc(C(F)(F)F)n1C(C)(C)C2,inconclusive: 14%
17,O=C(CCOc1ccccc1)Nc1ccnn1C1CCN(C(=O)C2=CCCCC2)CC1,inactive
18,COc1ccc(-n2nc3ccc(NC(=O)c4ccc(OC)c(Cl)c4)cc3n2)cc1,active: 33%
19,CCn1cnnc1CCNc1nc(C)nc2c1cnn2C,inconclusive: 16%
20,Cc1ncccc1C(=O)N1CCOC(Cc2cccc(C(F)(F)F)c2)C1 (stereo unspecified),inconclusive: 12%
21,O=C1c2ccccc2C(=O)N1C1CCCCC1N1C(=O)c2ccccc2C1=O (stereo unspecified),inactive

row,SMILES,inhibition
1,CC(C)n1cc(CN2CCN(Cc3ccccc3F)C(CCO)C2)cn1 (stereo unspecified),inactive
2,COc1ccccc1/C=C(\C#N)c1nc(-c2ccc3c(c2)OCO3)cs1,inconclusive: 19%
3,COc1cccc(C2C(N3C(=O)c4ccccc4C3=O)C(=O)N2c2ccc(Br)cc2)c1 (stereo unspecified),inconclusive: 18%
4,COc1cc(C(=O)NCc2cccc(C)n2)ccc1OC1CCN(C2CCCC2)CC1,inconclusive: 13%
5,Cc1cc2c3c([nH]c2cc1S(=O)(=O)Nc1ccc(S(N)(=O)=O)cc1)CC(C)(C)CC3=O,inactive
6,CS(=O)(=O)NC1CCN(C(=O)c2cn(Cc3ccc(F)cc3)nn2)CC1,inconclusive: 12%
7,COc1cc(C)c(Oc2cc(C)cc(O)c2O)c(O)c1,inconclusive: 14%
8,CCC(=O)Nc1c(C)n(C)n(-c2ccccc2)c1=O,inconclusive: 11%
9,CCCN(CC#Cc1ccccc1)C(=O)c1ccc2nccn2c1,inactive
10,Cc1cc(C)cc(OCC(O)CN2CCN(c3ccccc3)CC2)c1 (stereo unspecified),inconclusive: 10%
11,Cc1cc(C(=O)N2CCC3(CCCN(C)C3=O)C2)c2ccc(F)cc2n1 (stereo unspecified),inactive
12,Cc1cccnc1CN1CCN(C(=O)c2ccc(CO)o2)CC1,inconclusive: 10%
13,CN(C)c1ccc(-c2ccnc(N[C@H]3CO[C@H]4[C@@H]3OC[C@H]4OC(=O)NC3CCCCC3)n2)cc1,inconclusive: 15%
14,CC(=O)Nc1ccc(NC(=O)c2ccc(Cl)cc2)cc1,inconclusive: 12%
15,CCc1cccc(CC)c1N(COC)C(=O)Cn1c(CO)nc2ccccc21,inconclusive: 18%
16,COc1cccnc1C(=O)N1CCC(O)(C(=O)O)CC1,inconclusive: 12%
17,O=C(NCc1cccnc1)c1cccc(Br)c1,inactive
18,OC(c1cccs1)C1CCN(Cc2ccc(-n3cncn3)cc2)CC1 (stereo unspecified),inconclusive: 17%
19,CCOC(=O)c1cccc(NC(=O)N2CC[C@@H](CC(=O)N[C@@H](CO)CC(C)C)[C@@H](CC)C2)c1,inconclusive: 11%

# In the list so far, 2 contain a nitro group on carbon.
row,SMILES,inhibition
3,O=C1NN(c2ccc(F)cc2)C(=O)/C1=C\c1cccn1-c1ccc([N+](=O)[O-])cc1,active: 31%
5,CC1=NN(c2cccc(Cl)c2)C(=O)/C1=C\c1ccc(Cl)c([N+](=O)[O-])c1,inconclusive: 18%
